Measured values taken from article PMC2917412.
These are yes or no findings as the source states them, for the method shown. Binding seen in cells or lysates may run through a third protein. Binding calls can cover weak binding; strength is not graded here.

The chains behind the UniProt entries cited, without tags or fusion partners. Where a name states a change or a piece, a line headed by the entry shows the natural chain unless it says otherwise.
UniProt Q8C6B2: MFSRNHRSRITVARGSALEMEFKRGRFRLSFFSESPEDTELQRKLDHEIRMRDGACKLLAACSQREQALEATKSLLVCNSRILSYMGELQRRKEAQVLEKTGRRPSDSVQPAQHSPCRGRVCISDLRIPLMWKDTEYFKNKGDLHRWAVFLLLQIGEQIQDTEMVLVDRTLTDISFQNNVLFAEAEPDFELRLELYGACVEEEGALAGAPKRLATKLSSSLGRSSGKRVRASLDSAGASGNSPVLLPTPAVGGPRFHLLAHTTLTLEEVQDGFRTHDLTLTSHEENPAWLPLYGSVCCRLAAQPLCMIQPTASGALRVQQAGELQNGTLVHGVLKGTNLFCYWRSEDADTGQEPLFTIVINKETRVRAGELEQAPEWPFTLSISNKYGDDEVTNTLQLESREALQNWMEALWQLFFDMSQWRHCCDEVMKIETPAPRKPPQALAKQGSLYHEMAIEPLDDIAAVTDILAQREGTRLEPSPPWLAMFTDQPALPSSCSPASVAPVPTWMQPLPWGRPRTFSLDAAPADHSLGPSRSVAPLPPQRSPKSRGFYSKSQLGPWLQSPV
UniProt Q9QUI0: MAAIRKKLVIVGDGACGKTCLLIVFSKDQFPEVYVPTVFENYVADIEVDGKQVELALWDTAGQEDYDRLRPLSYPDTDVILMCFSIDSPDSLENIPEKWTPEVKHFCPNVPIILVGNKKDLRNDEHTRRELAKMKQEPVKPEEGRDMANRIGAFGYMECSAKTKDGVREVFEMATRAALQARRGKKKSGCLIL

Target: GST-Rhotekin-RBD (GTP-dependent binding domain of Rhotekin) (UniProt Q8C6B2)
Test: pull-down; lysates of transiently transfected NIH3T3 cells (pcDNA3, tP2YR, Tiam1-C1199 or Ect2-DH/PH/C; grown 24 h in DMEM with 0.5% fetal calf serum) incubated with GST-PAK-RBD or GST-Rhotekin-RBD; only the target purified

- binding: binds
Substance: RhoA (activated, GTP-bound) (from UniProt Q9QUI0 1-193)
